SMILES strings stand for the structures.

In assay [1] the test system is carbapenem-resistant isolates of Klebsiella aerogenes. Conditions: median (first and third quartile) over n = 12 isolates; Mueller-Hinton broth, 37 °C, 18–20 h; range tested 0 to 32 μg/mL. As for the experimental part: (§1) The strains of bacteria were isolated in 2021 from patients in the intensive care unit of the Stavropol State Regional Clinical Hospital. Identification and determination of antibiotic resistance of bacterial isolates were carried out using the disk diffusion method as part of a routine microbiological study in accordance with the European Committee on Antimicrobial Susceptibility Testing (EUCAST) protocols in the Department of Clinical Microbiology of the Center of Clinical Pharmacology and Pharmacotherapy.
(§2) The study of the antimicrobial activity of the synthesized peptides was performed by the standard broth dilution method according to the EUCAST guidelines. Briefly, pure bacterial cultures were cultured on a solid nutrient media (mannitol salt agar, BioMedia, Russia). From a fresh morning culture, we prepared a suspension in sterile saline corresponding to a McFarland turbidity standard of 0.5 (which is equivalent to 1–2 × 10^8 CFU/mL). The resulting suspension was dissolved in the BBL^TM Mueller-Hinton broth (Becton, Dickinson and Company, Franklin Lakes, NJ, USA) to obtain an inoculum with an approximate concentration of 5 × 10^5 CFU/mL. The inoculum (100 μL per well) was added to the wells of a sterile 96-well microtiter plate with a U-shaped bottom (Medpolymer, St. Petersburg, Russia). After that, serial two-fold dilutions of tested peptides (100 μL per well) were added to the wells. There were also sterility control wells (Mueller-Hinton broth only, without bacteria) and growth control wells (bacterial inoculum without peptides). Then, the plates were incubated in a thermostat at 37 °C. […] The MIC was taken as the minimum peptide concentration at which there was no visual growth in the corresponding well [26]. The peptides were dissolved in the Mueller–Hinton broth. The experiments with each peptide and bacterial isolate were performed in triplicate (in different plates). MIC values were calculated as median values of three independent replicates (calculations are presented in Supplementary Tables S1–S3).
(§3) Calculations of MICs (median, first, and third quartile) were performed in Microsoft Excel (Supplementary Tables S1–S3). Survival analysis by the Kaplan–Meier method and log-rank (Mantel–Cox) test was performed using GraphPad Prism version 9.2.0 for macOS (GraphPad Software, San Diego, CA, USA, www.graphpad.com, accessed on 29 January 2022).

The subject of assay [2] is carbapenem-resistant isolates of K. pneumoniae. To be noted: median (first and third quartile) over n = 18 isolates; Mueller-Hinton broth, 37 °C, 18–20 h; range tested 0 to 32 μg/mL. Here is the method:
as §1, §2, §3

Assay [3] relates to carbapenem-resistant isolates of Pseudomonas aeruginosa. Conditions: median (first and third quartile) over n = 17 isolates; Mueller-Hinton broth, 37 °C, 18–20 h; range tested 0 to 32 μg/mL. As for the experimental part:
as §1, §2, §3

On to `CC[C@H](C)[C@H](NC(=O)[C@H](C)NC(=O)[C@H](CCCCN)NC(=O)[C@H](CCC(N)=O)NC(=O)[C@H](CO)NC(=O)[C@H](CC(N)=O)NC(=O)[C@H](C)NC(=O)[C@H](CC(C)C)NC(=O)[C@H](CCCCN)NC(=O)[C@H](Cc1c[nH]c2ccccc12)NC(=O)[C@H](CC(C)C)NC(=O)[C@H](CO)NC(=O)CNC(=O)[C@H](CC(C)C)NC(=O)[C@H](C)NC(=O)[C@H](CCCCN)NC(=O)[C@H](CCCCN)NC(=O)[C@@H](NC(=O)[C@H](Cc1c[nH]c2ccccc12)NC(=O)[C@H](CC(=O)O)NC(=O)[C@H](CCCCN)NC(=O)[C@H](CC(C)C)NC(=O)CN)C(C)C)C(=O)N[C@H](C(=O)N[C@@H](CO)C(=O)NCC(=O)N[C@@H](CCCCN)C(=O)N[C@@H](CCCCN)C(=O)N[C@@H](CO)C(=O)O)[C@@H](C)CC` [PEP-38], for which the MIC in assay [1] is on record as 6 (4–8) μg/mL; in assay [2], 8 (4–8) μg/mL.

As to `CC[C@H](C)[C@H](NC(=O)[C@H](CCCCN)NC(=O)[C@H](CO)NC(=O)CNC(=O)[C@H](Cc1c[nH]cn1)NC(=O)[C@H](CCCCN)NC(=O)[C@H](CCCCN)NC(=O)[C@H](C)NC(=O)[C@H](Cc1ccccc1)NC(=O)[C@H](CCCCN)NC(=O)[C@H](CCCCN)NC(=O)[C@@H](NC(=O)[C@@H](NC(=O)[C@H](CCCCN)NC(=O)[C@H](Cc1ccccc1)NC(=O)CNC(=O)[C@H](Cc1ccccc1)NC(=O)[C@H](CCCCN)NC(=O)[C@H](C)NC(=O)[C@H](CC(C)C)NC(=O)[C@H](CCCCN)NC(=O)[C@H](CCCCN)NC(=O)[C@@H](NC(=O)[C@H](Cc1ccccc1)NC(=O)[C@H](CO)NC(=O)[C@H](CCCCN)NC(=O)[C@H](Cc1c[nH]c2ccccc12)NC(=O)[C@@H](N)CCCCN)[C@@H](C)CC)C(C)C)[C@@H](C)CC)C(=O)N[C@@H](C)C(=O)N[C@@H](CCCCN)C(=O)N[C@@H](CC(N)=O)C(=O)N[C@@H](CCC(N)=O)C(=O)O` [PEP-137], the MIC in assay [1] is 2 (1–2.5) μg/mL; in assay [2], 2 (1–4) μg/mL; in assay [3], 2 (2–4) μg/mL.

The record behind these values is publication PMC8944797, “Novel Antimicrobial Peptides Designed Using a Recurrent Neural Network Reduce Mortality in Experimental Sepsis” (Antibiotics, 2022).
